Source: patent US12714688B2, “Margaric acid decreases PIEZ02-mediated pain” (The United States of America, as represented by The …, priority 2020, dated 2026)
For at least one compound, name, drawing or mass did not settle the structure. No end group written: not given here.

Tested on: mechano-activated currents of DRG neurons
Assay: Bradykinin sensitization of mechano-activated currents in mouse DRG neurons
Type: cell-based

“RPPGFSPFR [bradykinin, reference compound]” was tested, and the “increase of mechano-activated currents” value (acute bradykinin perfusion (1 μM)) was 2.5 fold and the “magnitude of mechano-evoked currents” value (overnight incubation with bradykinin (1 μM; 18 h)) was “potentiated the magnitude of all mechano-evoked currents”.
